Experimental data taken from paper PMC4054954 (Brain research, 2011).

System: HT-22 cells
Test: HT-22 cell-based glutamate cytoprotection assay
Design: species or system murine
Details: Mus musculus, HT-22, read-out: cytoprotective EC50

- EC50: 5.9 ± 2.1 nM
Compound: O=C(CCCN1CCC(O)(c2ccc(Cl)cc2)CC1)c1ccc(F)cc1 [haloperidol]
